The record followed here is the supplement of paper PMC6414424.

The structures appear in SMILES notation. ± gives the standard deviation of the averaged measurements. This is one part of the list.

The experiment concerns APPdp1-6 iPSC-derived neurons. Kind of experiment: pThr231Tau/total Tau ratio Z-score vs DMSO vehicle wells; higher = more pThr231Tau relative to total Tau. The note with it: 5 µM; treatment time 5 days.
As to `CC(=O)[C@H]1CC[C@H]2[C@@H]3CCC4=CC(=O)CC[C@]4(C)[C@H]3CC[C@]12C` [Prestw-477], the “pThr231Tau/total Tau ratio Z-score” value was -0.309 ± 0.45.
Consider `CN(C)CC/C=C1/c2ccccc2Sc2ccc(Cl)cc21` [Prestw-348], for which the “pThr231Tau/total Tau ratio Z-score” value was -0.708 ± 0.6.
In the case of `CC(C)NC[C@@H](O)c1ccc(O)c(O)c1` [Prestw-911] it was 0.947 ± 0.28.
The value for `CN(C)CCOC(c1ccccc1)c1ccccc1` [Prestw-65] was 0.905 ± 0.2; that for `COc1ccc2[nH]c([S+]([O-])Cc3ncc(C)c(OC)c3C)nc2n1` (stereo unspecified) [Prestw-1351] was -1.68 ± 0.72; that for `CC(=O)Oc1c(C)c(C)c2c(c1C)CC[C@@](C)(CCC[C@H](C)CCC[C@H](C)CCCC(C)C)O2` was -0.276 ± 0.5.
For `C[C@]12CC[C@@H]3c4ccc(O)cc4CC[C@H]3[C@@H]1CC[C@@H]2O` [Prestw-441], the “pThr231Tau/total Tau ratio Z-score” value is 0.607 ± 0.17.
The value for `CCN(CC)C(=O)c1cccc(C)c1` was -1.06 ± 0.74; that for `CCCN(CCC)S(=O)(=O)c1ccc(C(=O)O)cc1` [Prestw-542] was 0.307 ± 0.75; that for `Clc1ccc(CSC(Cn2ccnc2)c2ccc(Cl)cc2Cl)cc1` (stereo unspecified) [Prestw-810] was -1.44 ± 2.
In the case of `C[n+]1cc2c3c(ccc2c2ccc4cc5c(cc4c21)OCO5)OCO3` it was -1.65 ± 0.28.
The value for `CN(C)CCN(Cc1ccccc1)c1ccccn1` [Prestw-1199] was -0.0854 ± 1.1; that for `Nc1ccn([C@@H]2O[C@H](CO)[C@@H](O)C2(F)F)c(=O)n1` [Prestw-1266] was 0.609 ± 0.095.
`CN1C(=O)CC(c2ccccc2)C1=O` (stereo unspecified) [Prestw-1061]: the “pThr231Tau/total Tau ratio Z-score” value is 6.19 ± 9.2.
In the case of `CC(=O)O[C@@]12CO[C@@H]1C[C@H](O)[C@@]1(C)C(=O)[C@H](O)C3=C(C)[C@@H](OC(=O)[C@H](O)[C@@H](NC(=O)OC(C)(C)C)c4ccccc4)C[C@@](O)([C@@H](OC(=O)c4ccccc4)[C@H]21)C3(C)C` [Prestw-1180] it was -3.43 ± 0.45; in that of `N[C@@H](Cc1cc(I)c(Oc2cc(I)c(O)c(I)c2)c(I)c1)C(=O)O` [Prestw-403], -0.421 ± 0.8; in that of `N=C(N)NC(=O)Cc1c(Cl)cccc1Cl` [Prestw-339], 0.0308 ± 1.4.
In the case of `Clc1ccc(Cn2c(CN3CCCC3)nc3ccccc32)cc1` [Prestw-227] it was -1.1 ± 1.3.
The value for `COc1cc2nc(N(C)CCCNC(=O)C3CCCO3)nc(N)c2cc1OC` (stereo unspecified) [Prestw-322] was -0.554 ± 0.15.
Regarding `CCCCCCCCCCCCCCCC(=O)OC[C@@H](NC(=O)C(Cl)Cl)[C@H](O)c1ccc([N+](=O)[O-])cc1` [CHLORAMPHENICOL PALMITATE, antibacterial, antirickettsial], the “pThr231Tau/total Tau ratio Z-score” value came to 2.21 ± 1.7.
The value for `CC(C)N=c1cc2n(-c3ccc(Cl)cc3)c3ccccc3nc-2cc1Nc1ccc(Cl)cc1` [Prestw-376] was -3.16 ± 1.1; that for `O=C(O)COCCN1CCN(C(c2ccccc2)c2ccc(Cl)cc2)CC1` (stereo unspecified) [Prestw-503] was -0.79 ± 2.1.
In the case of `CCCCC(CC)CCC(CC(C)C)OS(=O)(=O)O` (stereo unspecified) it was -0.263 ± 0.45; in that of `COc1ccc2cc([C@H](C)CO)ccc2c1`, 0.0099 ± 0.15; in that of `Clc1ccc(CO/N=C(\Cn2ccnc2)c2ccc(Cl)cc2Cl)c(Cl)c1` [Prestw-1125], -0.0338 ± 0.65.
Take `CC(=O)O[C@]1(C(C)=O)CC[C@H]2[C@@H]3C=C(Cl)C4=CC(=O)[C@@H]5C[C@@H]5[C@]4(C)[C@H]3CC[C@@]21C` [Prestw-1074]: the “pThr231Tau/total Tau ratio Z-score” value was -0.733 ± 0.23.
The value for `COc1cc2c3cc1Oc1cc(ccc1O)C[C@@H]1c4c(cc(OC)c(O)c4Oc4ccc(cc4)C[C@@H]3N(C)CC2)CC[N+]1(C)C` was 1.48 ± 2.3.
In the case of `CC1(C)[C@H](C(=O)O)N2C(=O)C[C@H]2S1(=O)=O` [Prestw-1345] it was -0.992 ± 0.66; in that of `Cc1ncc(CO)c(CO)c1O` [Prestw-623], 1.16 ± 0.28; in that of `CCc1c(C)[nH]c2c1C(=O)C(CN1CCOCC1)CC2` (stereo unspecified) [Prestw-1035], 1.46 ± 0.05.
The value for `CCO/C([O-])=N/c1c[n+](N2CCOCC2)no1` was 0.339 ± 0.33.
Regarding `CCC1(c2ccccc2)NC(=O)N(C)C1=O` (stereo unspecified) [Prestw-1108], the “pThr231Tau/total Tau ratio Z-score” value was -0.218 ± 0.67.
The value for `CC1=C(C(=O)O)N2C(=O)[C@@H](NC(=O)[C@H](N)C3=CCC=CC3)[C@H]2SC1` [CEPHRADINE, antibacterial] was 1.02 ± 0.4; that for `N[C@@H](CCC(=O)N[C@@H](CS)C(=O)NCC(=O)O)C(=O)O` [Glutathione] was 0.775 ± 0.56.
Regarding `COc1cc(C(=O)NCCCCCC(=O)O)cc(OC)c1OC` [CAPOBENIC ACID, antiarrhythmic], the “pThr231Tau/total Tau ratio Z-score” value was 1.86 ± 2.9.
`CC1=C(/C=C/C(C)=C/C=C/C(C)=C/C(=O)O)C(C)(C)CCC1` [Prestw-257]: the “pThr231Tau/total Tau ratio Z-score” value was -0.137 ± 1.3.
For `CC(=O)Oc1ccccc1C(=O)O` [Prestw-1207], the “pThr231Tau/total Tau ratio Z-score” value was found to be 0.0259 ± 0.16.
For the molecule `O=c1cc(-c2ccccc2)oc2cc(O)ccc12`, the “pThr231Tau/total Tau ratio Z-score” value is 1.08 ± 0.3.
In the case of `CC(=O)Nc1ccccc1` [ACETANILIDE    Therap cat: analgesic, antipyretic] it was -0.108 ± 0.47; in that of `O=C1OC2(c3ccccc31)c1cc(I)c(O)c(I)c1Oc1c2cc(I)c(O)c1I` [ERYTHROSINE SODIUM, color additive], 0.903 ± 0.6.
For the molecule `CC(C(=O)O)c1ccc2c(c1)Cc1cccnc1O2` (stereo unspecified) [Prestw-1318], the “pThr231Tau/total Tau ratio Z-score” value is -0.664 ± 0.32.
In the case of `CSc1ccc2c(c1)C(N1CCN(C)CC1)Cc1ccccc1S2` (stereo unspecified) [Prestw-375] it was -1.52 ± 1.6; in that of `Cc1c(C)c2c(c(C)c1O)CCC(C)(COc1ccc(CC3SC(=O)NC3=O)cc1)O2` (stereo unspecified) [Prestw-1467], 0.642 ± 0.53.
Regarding `C=Cc1c(C)c2cc3[nH]c(cc4nc(cc5nc(cc1[nH]2)C(C)=C5CCC(=O)O)C(CCC(=O)O)=C4C)c(C)c3C=C` [Protoporphyrin IX], the “pThr231Tau/total Tau ratio Z-score” value was -0.0835 ± 0.19.
`CC1(C)[C@@H]2CC[C@@]1(C)C(=O)C2` [CAMPHOR (1R), analgesic, antiinfective, antipruritic]: the “pThr231Tau/total Tau ratio Z-score” value is -0.915 ± 1.1.
In the case of `COC(c1ccccc1)(c1ccccc1)[C@H](Oc1nc(C)cc(C)n1)C(=O)O` [Prestw-1497] it was -0.221 ± 0.053; in that of `COc1ccc([C@@H]2CC(=O)c3c(O)cc(O[C@@H]4O[C@H](CO[C@@H]5O[C@@H](C)[C@H](O)[C@@H](O)[C@H]5O)[C@@H](O)[C@H](O)[C@H]4O)cc3O2)cc1O` [Prestw-400], 0.7 ± 1.3; in that of `CC(C)(C(=O)O)c1ccc(C(O)CCCN2CCC(C(O)(c3ccccc3)c3ccccc3)CC2)cc1` (stereo unspecified) [Prestw-1102], 0.0801 ± 1.5.
In the case of `NS(=O)(=O)c1cc(C(=O)O)cc(N2CCCC2)c1Oc1ccccc1` [Prestw-1047] it was 0.882 ± 0.74.
The value for `CN(C)CCCN1c2ccccc2Sc2ccccc21` [Prestw-693] was -0.528 ± 0.12; that for `O=C(O)c1cccnc1Nc1cccc(C(F)(F)F)c1` [Prestw-255] was -0.133 ± 0.8.
